Data reported in patent publication US9249102B2 (priority 2012, dated 2016).

Legend:
Haemonchus contortus = assay: Method A: Haemonchus contortus L1 larvae, microtitre plate screen; settings: 96 h, read-out: motility inhibition
Cooperia oncophora = assay: Method C: Cooperia oncophora L1 larvae in vitro; settings: 96 h, read-out: inhibition of motility
[1] = tested on: microfilaria of Dirofilaria immitis; assay: Method F: microfilaria of Dirofilaria immitis, survival at 24 hours

For `O=C(CO[C@H]1CC[C@H](Nc2ccc([N+](=O)[O-])c(C(F)(F)F)c2)CC1)N1CCN(c2ccc3cc(F)ccc3n2)CC1` [Compound 97, 1-[4-(6-fluoroquinolin-2-yl)piperazin-1-yl]-2-[(4-[[4-nitro-3-(trifluoromethyl)phenyl]amino]cyclohexyl)oxy]ethan-1-one], the inhibition at 5 µg/mL (Haemonchus contortus) was ≥ 90%, the inhibition at 5 µg/mL (Cooperia oncophora) was ≥ 90% and the EC50 [1] was < 1 µg/mL.
